In paper PMC7862700:
The entries are a selection whose mix differs from that of the whole data set. For some of these results: At the low end of the ranking the order means little. The list shows a part of the results. For some of these results: The exact form of the protein is not confirmed.

Chains of the proteins cited; added tags and fusions are not shown. Lines headed by an entry give the natural chain unless they say otherwise; changes in a name come on top.
UniProt P32519: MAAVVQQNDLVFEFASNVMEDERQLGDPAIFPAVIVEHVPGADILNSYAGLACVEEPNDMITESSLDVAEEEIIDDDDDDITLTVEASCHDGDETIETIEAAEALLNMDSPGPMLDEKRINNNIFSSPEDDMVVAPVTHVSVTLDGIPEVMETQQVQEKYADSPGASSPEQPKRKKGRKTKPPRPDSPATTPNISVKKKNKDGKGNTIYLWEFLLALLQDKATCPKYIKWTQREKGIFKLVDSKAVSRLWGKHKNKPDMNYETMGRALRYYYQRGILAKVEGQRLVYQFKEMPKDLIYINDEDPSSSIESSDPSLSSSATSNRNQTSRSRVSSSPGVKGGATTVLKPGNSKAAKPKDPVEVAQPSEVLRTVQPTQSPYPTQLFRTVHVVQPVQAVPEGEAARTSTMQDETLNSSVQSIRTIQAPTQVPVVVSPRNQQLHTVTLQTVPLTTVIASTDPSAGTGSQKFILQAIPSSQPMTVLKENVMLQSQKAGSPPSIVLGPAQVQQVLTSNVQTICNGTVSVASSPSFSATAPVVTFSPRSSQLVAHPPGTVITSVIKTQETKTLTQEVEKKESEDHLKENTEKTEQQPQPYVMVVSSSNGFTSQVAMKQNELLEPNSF
UniProt P50549: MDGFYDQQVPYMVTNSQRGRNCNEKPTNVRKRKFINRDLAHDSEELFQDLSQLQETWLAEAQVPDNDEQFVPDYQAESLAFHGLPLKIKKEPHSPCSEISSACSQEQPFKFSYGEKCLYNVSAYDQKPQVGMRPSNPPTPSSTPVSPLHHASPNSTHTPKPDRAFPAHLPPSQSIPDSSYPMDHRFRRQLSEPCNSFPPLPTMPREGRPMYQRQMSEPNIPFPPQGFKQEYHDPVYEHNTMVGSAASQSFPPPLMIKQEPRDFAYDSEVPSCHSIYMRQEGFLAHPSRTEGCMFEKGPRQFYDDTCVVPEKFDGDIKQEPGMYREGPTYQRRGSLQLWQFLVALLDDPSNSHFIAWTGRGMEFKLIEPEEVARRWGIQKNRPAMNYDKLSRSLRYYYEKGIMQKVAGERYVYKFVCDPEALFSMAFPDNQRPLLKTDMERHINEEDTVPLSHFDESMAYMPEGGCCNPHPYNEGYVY

How the values were obtained:
Assay in all cases: DAPPL (digital affinity profiling via proximity ligation, sequencing)
Conditions in all cases: 10 mM Tris-HCl pH 7.5, 50 mM NaCl, 1 mM DTT, 4% glycerol, room temperature, 30 min; GST-TFs on glutathione beads, 16-mer random dsDNA library, 0.1% …; high values mean tight binding; double strand, one strand shown; scale: fold enrichment (6-mer frequency, TF over GST control)
[1] = molecular target: ELF1 (UniProt P32519)
[2] = molecular target: T1, ETV4 (UniProt P43268)
T1 sequence: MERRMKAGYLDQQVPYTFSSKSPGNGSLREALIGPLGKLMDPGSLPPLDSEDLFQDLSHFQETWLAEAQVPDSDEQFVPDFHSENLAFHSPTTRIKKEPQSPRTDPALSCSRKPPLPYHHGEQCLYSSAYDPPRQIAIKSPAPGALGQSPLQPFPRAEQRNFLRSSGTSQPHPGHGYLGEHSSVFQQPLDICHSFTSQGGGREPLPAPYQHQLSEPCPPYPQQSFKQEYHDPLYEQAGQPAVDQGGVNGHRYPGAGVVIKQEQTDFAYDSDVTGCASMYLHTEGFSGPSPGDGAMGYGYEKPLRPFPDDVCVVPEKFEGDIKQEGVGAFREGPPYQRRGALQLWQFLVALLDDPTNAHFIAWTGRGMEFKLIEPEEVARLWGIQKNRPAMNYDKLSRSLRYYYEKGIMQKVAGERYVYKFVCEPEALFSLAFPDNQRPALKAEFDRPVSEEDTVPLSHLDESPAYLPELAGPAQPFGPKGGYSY

[3] = molecular target: ETV1 (UniProt P50549)
[4] = molecular target: T2, ERF (UniProt P50548)
T2 sequence: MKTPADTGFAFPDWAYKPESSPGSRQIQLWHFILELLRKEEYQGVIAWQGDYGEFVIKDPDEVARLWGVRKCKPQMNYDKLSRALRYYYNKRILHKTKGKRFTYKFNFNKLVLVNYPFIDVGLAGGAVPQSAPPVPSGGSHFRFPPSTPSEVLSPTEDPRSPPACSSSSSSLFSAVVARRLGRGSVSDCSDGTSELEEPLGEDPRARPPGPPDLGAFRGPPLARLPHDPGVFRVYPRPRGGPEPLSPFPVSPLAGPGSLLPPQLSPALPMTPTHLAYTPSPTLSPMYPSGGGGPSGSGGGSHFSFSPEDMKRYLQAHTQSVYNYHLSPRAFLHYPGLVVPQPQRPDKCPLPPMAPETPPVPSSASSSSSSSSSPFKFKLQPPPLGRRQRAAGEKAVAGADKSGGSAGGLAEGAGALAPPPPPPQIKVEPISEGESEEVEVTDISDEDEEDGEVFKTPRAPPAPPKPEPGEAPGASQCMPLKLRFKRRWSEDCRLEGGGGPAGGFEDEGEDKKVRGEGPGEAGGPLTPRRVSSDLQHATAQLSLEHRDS

Sequence | binding signal [1] | binding signal [2] | binding signal [3] | binding signal [4]
TTCTGC | 1.52 | 1.45 | 1.45 | 
CAATTG |  | 1.25 |  | 1.29
GTAACA |  | 1.1 |  | 1.1
AGCTCC |  | 1.35 |  | 1.24
TGCTTT |  | 1.11 |  | 1.29
AAACGG |  | 1.2 |  | 1.17
CACTTG | 1.33 | 1.38 | 1.36 | 
ATTTGA |  | 1.27 |  | 1.14
TTGATG |  | 1.69 |  | 1.66
TTTAGC |  | 1.08 |  | 1.19
TCTCCG | 1.6 | 1.56 | 1.48 | 
TCCTAT |  | 1.43 |  | 1.56
TTCTCC | 1.56 | 1.59 | 1.45 | 
TTCCTG |  | 2.3 |  | 1.87
GCGCTC | 1.12 | 1.29 | 0.994 | 
ATAGTA |  | 1.16 |  | 1.23
TCGACC |  | 1.3 |  | 1.31
TGACGA |  | 1.1 |  | 1.14
CTCAGA | 1.14 | 1.14 | 1.1 | 
CGTATT |  | 1.09 |  | 1.08
AAAAAA | 1.32 | 1.25 | 1.27 | 
GTATTT |  | 1.6 |  | 1.47
GAAAAG |  | 1.03 |  | 1

Sequence | binding signal [1] | binding signal [2] | binding signal [3] | binding signal [4]
AAGCGA |  | 1.12 |  | 1.02
CCAAAA |  | 1.17 |  | 1.16
CACCAT |  | 1.11 |  | 1.12
AATTTA |  | 1.21 |  | 1.27
CGACGT |  | 1.11 |  | 1.17
CTTGTC |  | 1.33 |  | 1.44
CTACTC |  | 1.4 |  | 1.48
TCAACC |  | 1.11 |  | 1.3
CTTTCA |  | 1.35 |  | 1.44
CCTTGG |  | 1.34 |  | 1.23
AACCAA |  | 1.3 |  | 1.25
CGATAA |  | 1.1 |  | 1.11
TTATGT |  | 1.22 |  | 1.29
AATGGG |  | 1.15 |  | 1.16
TGGTCT |  | 1.73 |  | 1.52
ACTGCG |  | 1.27 |  | 1.26
CGTCCC |  | 1.3 |  | 1.35
CAACAT |  | 1.21 |  | 1.23
CCTATG |  | 1.44 |  | 1.11
TTTATG |  | 1.25 |  | 1.31
TCTAAA |  | 1.18 |  | 1.17
CGCTCA |  | 1.21 |  | 1.2
CCGCAC |  | 1.54 |  | 1.46

Sequence | binding signal [1] | binding signal [2] | binding signal [3] | binding signal [4]
CTTTTT |  | 1.33 |  | 1.31
CGCCCT |  | 1.48 |  | 1.37
TCTTTA |  | 1.32 |  | 1.1
CTTGCA |  | 1.37 |  | 1.39
GTAAAC |  | 1.22 |  | 1.27
GATCTT |  | 1.26 |  | 1.15
GCCCTT |  | 1.25 |  | 1.11
CATTTA |  | 1.14 |  | 1.23
AAATTG |  | 1.25 |  | 1.3
TTCAAG |  | 1.29 |  | 1.27
CTCTGA |  | 1.22 |  | 1.22
ACCCCG |  | 1.17 |  | 1.26
TTGCGT |  | 1.09 |  | 1.21
GGCTCA |  | 1.25 |  | 1.3
ATGTCA | 1.16 | 1.2 |  | 
ATCCGC |  | 1.81 |  | 1.71
GCATTC |  | 1.15 |  | 1.16
GCAAAA |  | 1.07 |  | 1.14
TATTGT |  | 1.28 |  | 1.44
TGGCAA | 1.2 | 1.12 |  | 1.21
CGACCG | 1.17 | 1.29 |  | 1.17
ATCATT |  | 1.06 |  | 1.13
AACCAT | 1.18 | 1.13 |  | 1.07

Shown as comma-separated lines: part of the list above
Sequence,binding signal [1],binding signal [2],binding signal [3],binding signal [4]
CTTGCA,,1.37,,1.39
GTAAAC,,1.22,,1.27
GATCTT,,1.26,,1.15
